The list shows a part of the results. Further columns of the screen follow, without active or inactive calls. Most of these compounds were active or inconclusive in the main read-out, so they are no random draw. Potencies come from curve fits of mixed quality, noted in brackets.
Assay: qHTS Assay for Modulators of Lamin A Splicing
Settings: HeLa LMNA splicing GFP/RFP minigene ratio, 48 h
Procedure, shortened: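 S3 HeLa cells stably expressing lamin A-EGFP splicing minigene plus DsRed2, 600 cells/well, 48 h compound exposure at 37C. Laser-scanning cytometry; analysed as GFP (500-530 nm)/RFP (575-640 nm) total intensity ratio; 0.5% DMSO vehicle.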

[1] = measured here: GFP splicing reporter channel
[2] = measured here: RFP viability control channel

SMILES: O=C(NCc1ccccc1F)C(=O)NCC(c1cccs1)S(=O)(=O)c1cccs1 (centres undefined)
- AC50 [1]: 0.0316 µM [falling, full curve, poor fit]

SMILES: CCCCCn1nnc2c(=O)oc3ccccc3c21
- AC50 [1]: 17.8 µM [falling, partial curve, poor fit]
- AC50 [2]: 14.1 µM [rising, single point]

SMILES: CCN(CC)S(=O)(=O)c1cc(NC(=O)CSc2nc3c(cc2C#N)C(=O)CC(C)(C)C3)ccc1C
- AC50 [2]: 10 µM [rising, partial curve]

SMILES: C=CCn1c(NC(=O)c2ccccc2Cl)c(C#N)c2nc3ccccc3nc21
- AC50 [2]: 11.2 µM [rising, single point]

SMILES: O=C(Nc1ccc(F)cc1)C(Sc1nc2ccccc2[nH]1)c1ccccc1 (centres undefined)
- AC50 [1]: 7.08 µM [rising, partial curve]
- AC50 [2]: 10 µM [rising, partial curve]

SMILES: Cc1cccc(NCC(=O)NNC(=S)Nc2ccccc2)c1
- AC50 [2]: 0.0794 µM [rising, full curve, poor fit]

SMILES: Cc1cccc(-c2nnc(SCc3nc4ccccc4[nH]3)n2Cc2ccco2)c1
- AC50 [1]: 35.5 µM [rising, single point]
- AC50 [2]: 35.5 µM [rising, single point]

SMILES: COc1ccc(OC)c(NC(=O)c2c(NC(=O)CCC(=O)O)sc3c2CCCCC3)c1
- AC50 [1]: 35.5 µM [rising, single point]

SMILES: Cc1cc(NC(=O)CSc2nc(-c3cccs3)cc(C(F)(F)F)n2)no1
- AC50 [2]: 2 µM [rising, full curve]

SMILES: Clc1nnc(NN=C2CCCC2)c2ccccc12
- AC50 [1]: 3.55 µM [rising, single point]
- AC50 [2]: 2.82 µM [rising, single point]

SMILES: CC(C)(C=O)Cc1cc(C(C)(C)C)c(O)c(C(C)(C)C)c1
- AC50 [1]: 35.5 µM [falling, single point]

SMILES: Oc1c(C(c2cccs2)N2CCN(c3cccc(Cl)c3)CC2)sc2ncnn12 (centres undefined)
- AC50 [2]: 10 µM [rising, partial curve]

SMILES: CC1CCN(c2ccc(-c3cccc(NS(=O)(=O)c4ccc(Cl)s4)c3)nn2)CC1
- AC50 [2]: 10 µM [rising, partial curve, poor fit]

SMILES: O=C(OCC(=O)N1CCN(C(=O)c2ccco2)CC1)c1ccccc1OCc1ccccc1
- AC50 [2]: 0.00447 µM [rising, full curve, poor fit]

SMILES: Cc1ccc(C)c(N2CCN(C(=O)c3ccc(CSc4nc5ccncc5[nH]4)cc3)CC2)c1
- AC50 [1]: 1.58 µM [rising, partial curve]
- AC50 [2]: 11.2 µM [rising, partial curve]

SMILES: COc1ccccc1NC(=S)NCCSc1ccc(C)cc1
- AC50 [2]: 10 µM [rising, partial curve, poor fit]

SMILES: OC1(c2cccc(C(F)(F)F)c2)CCN(c2ncnc3c2[nH]c2ccc(F)cc23)CC1
- AC50 [1]: 35.5 µM [falling, single point]
- AC50 [2]: 3.55 µM [rising, partial curve]

SMILES: O=C1CCCN1CC1CCCN(Cc2nc(COc3ccccc3)no2)C1 (centres undefined)
- AC50 [2]: 35.5 µM [falling, single point]

SMILES: COc1ccc(-n2cc(-c3ccccc3)[n+]3c2CCCCC3)cc1
- AC50 [1]: 35.5 µM [falling, single point]

SMILES: COc1ccc(C2C(C#N)=C(N)Oc3n[nH]c(C)c32)cc1CN1CCN(c2ccc(F)cc2)CC1 (centres undefined)
- AC50 [1]: 35.5 µM [falling, single point]
- AC50 [2]: 22.4 µM [falling, single point]

SMILES: c1ccc(-c2nc(-n3ccnc3)nc(-n3ccnc3)n2)cc1
- AC50 [1]: 35.5 µM [rising, single point]
- AC50 [2]: 22.4 µM [rising, single point]

SMILES: NS(=O)(=O)c1ccc(CCNC(=O)CN2CCN(c3cccc(Cl)c3)CC2)cc1
- AC50 [1]: 2.51 µM [falling, single point]

SMILES: Clc1ncc(Cn2cccn2)s1
- AC50 [1]: 0.02 µM [falling, full curve, poor fit]

SMILES: CCOC(=O)c1c(NC(=O)c2ccccc2Cl)sc2c1CCc1ccccc1-2
- AC50 [1]: 7.08 µM [rising, single point]
- AC50 [2]: 14.1 µM [rising, partial curve]

SMILES: Cc1ccc(S(=O)(=O)Nc2ccc(-c3ccc(N4CCCCCC4)nn3)cc2)cc1C
- AC50 [1]: 0.1 µM [falling, full curve]
- AC50 [2]: 0.00282 µM [falling, full curve]

SMILES: CCOc1ccc(/C(O)=C2/C(=O)C(=O)N(c3cc(C)on3)C2c2ccc(C(=O)OC)cc2)cc1 (centres undefined)
- AC50 [2]: 31.6 µM [rising, single point]

SMILES: CCn1c(/C=C/c2ccc([N+](=O)[O-])o2)nc2ccccc2c1=O
- AC50 [1]: 5.62 µM [falling, full curve]
- AC50 [2]: 4.47 µM [falling, full curve]

SMILES: COc1cc(S(=O)(=O)N2CCN(C(=O)c3ccccc3F)CC2)c(OC)cc1NC(C)=O
- AC50 [1]: 14.1 µM [rising, single point]
- AC50 [2]: 15.8 µM [rising, single point]

SMILES: Cc1ccc(N(C(=O)c2ccc(S(=O)(=O)N3CCOCC3)cc2)C2C=CS(=O)(=O)C2)cc1C (centres undefined)
- AC50 [1]: 0.02 µM [rising, full curve, poor fit]

SMILES: O=C(C1CCCC1)N1CCN=C1SCc1cccc([N+](=O)[O-])c1
- AC50 [2]: 1.41 µM [falling, partial curve, poor fit]

SMILES: CCOC(=O)Cc1nc(-c2ccccc2)n[nH]1
- AC50 [2]: 0.01 µM [rising, full curve, poor fit]

SMILES: CCOC(=O)c1c(C=O)c(C)n(Cc2ccc(Cl)cc2)c1C
- AC50 [2]: 35.5 µM [rising, single point]

SMILES: CCCCN(C)C(=O)CCCCn1c(=O)[nH]c2cc(OCC)c(OCC)cc2c1=O
- AC50 [2]: 0.1 µM [rising, partial curve, poor fit]

SMILES: CCN(CC)c1ccc(NC(=O)COc2ccc(C#N)cc2)cc1S(=O)(=O)Nc1ccc(OC)cc1
- AC50 [2]: 5.62 µM [rising, full curve, poor fit]

SMILES: COc1ccc(NC2=C(NCCO)C(=O)c3ccccc3C2=O)cc1
- AC50 [1]: 10 µM [rising, partial curve]

SMILES: CC1CCN(C(=S)Nc2ccc3nc4n(c(=O)c3c2)CCCCC4)CC1
- AC50 [2]: 20 µM [rising, partial curve]

SMILES: Cc1cc2c(n1-c1ccc(C(=O)NCC(C)c3ccccc3)cc1)CCCC2 (centres undefined)
- AC50 [2]: 15.8 µM [rising, single point]

SMILES: COc1ccccc1-c1nc(NCc2cccs2)c2ccccc2n1
- AC50 [1]: 12.6 µM [falling, partial curve]
- AC50 [2]: 14.1 µM [falling, partial curve]

SMILES: CCn1c(C(C)NC(=O)c2ccccc2C)n[nH]c1=S (centres undefined)
- AC50 [2]: 1.26 µM [falling, partial curve]

SMILES: CS(=O)(=O)Nc1cccc(-c2ccc3ncnc(Nc4ccc(F)cc4)c3c2)c1
- AC50 [1]: 20 µM [falling, partial curve]
- AC50 [2]: 25.1 µM [falling, partial curve]

SMILES: O=C(O)/C=C/C(=O)Nc1ccc(OC(F)(F)F)cc1Br
- AC50 [1]: 31.6 µM [falling, partial curve, poor fit]

SMILES: Cc1ccc(C)c(NC(=O)c2ccc(=O)n(Cc3ccc(F)cc3)c2)c1
- AC50 [1]: 0.708 µM [falling, full curve, poor fit]

SMILES: COC(=O)c1cccc(NC(=O)Cc2nc(-c3ccccc3)sc2-c2ccc(C)cc2)c1
- AC50 [2]: 0.398 µM [rising, full curve, poor fit]

SMILES: COCCNCCCOc1ccc(Cl)cc1Br
- AC50 [1]: 1 µM [falling, full curve, poor fit]

SMILES: Fc1ccccc1CNC(=S)Nc1ccc(Cl)cc1
- AC50 [2]: 35.5 µM [rising, single point]

SMILES: CCOc1ccc(CC(=O)NCCS(=O)(=O)N2CCN(c3ccccc3OC)CC2)cc1
- AC50 [1]: 35.5 µM [falling, single point]

SMILES: Cc1cc(C)n(CCc2nc(-c3ccc(C(C)(C)C)cc3)cs2)n1
- AC50 [2]: 35.5 µM [rising, partial curve]

SMILES: COc1ccc(-c2ccc(NS(=O)(=O)c3ccccc3)cc2)nn1
- AC50 [2]: 14.1 µM [falling, partial curve, poor fit]

SMILES: CN(C)CCNC(=O)Cc1ncc(C(F)(F)F)cc1Cl
- AC50 [1]: 0.501 µM [rising, full curve]

SMILES: O=C(N/N=C/c1cn(CCOc2ccccc2)c2ccccc12)c1ccncc1
- AC50 [1]: 14.1 µM [rising, partial curve]
- AC50 [2]: 15.8 µM [rising, single point]

SMILES: O=C(COC(=O)c1ccccc1Nc1ccc(SC(F)F)cc1)NC1CC1
- AC50 [2]: 14.1 µM [rising, partial curve]

SMILES: CCCc1cc2c(=O)c(-c3ccc4c(c3)OCCO4)coc2cc1OS(C)(=O)=O
- AC50 [2]: 35.5 µM [rising, single point]

SMILES: COC(=O)COc1cccc2c(=O)n(CC(=O)NCCc3ccc(OC)c(OC)c3)ccc12
- AC50 [1]: 0.00891 µM [falling, full curve]
- AC50 [2]: 0.0316 µM [falling, full curve, poor fit]

SMILES: O=C1OCC2=C1C(c1ccc(F)cc1)c1cc3c(cc1N2)OCO3 (centres undefined)
- AC50 [1]: 0.282 µM [falling, full curve]
- AC50 [2]: 0.0631 µM [falling, full curve, poor fit]

SMILES: CCOC(=O)c1cc(-c2ccccc2)n(CCC(=O)Nc2ccc(OC)c(Cl)c2)c1C
- AC50 [1]: 12.6 µM [rising, partial curve, poor fit]

SMILES: C=CC1=C2C=C(C3CC3)N(CCCN(CC)CC)C=C2C(=O)C(C)(OC(=O)c2ccco2)C1=O (centres undefined)
- AC50 [2]: 0.00447 µM [falling, full curve]

SMILES: N#Cc1c(NCCN)nc(-c2ccco2)c2c1CCCC2
- AC50 [2]: 12.6 µM [rising, single point]
